Reference: the supplement of paper PMC8728848
Some of the results follow.

Experiments:
Assay in all cases: glycan array binding signal (z-score within array); higher = stronger binding
Conditions in all cases: glycan notation: IUPAC condensed, linker removed
[1] = target: GalNAc(b1-3)GalNAc
How it was run: (§1)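 Glycan array binding is given as a within-array Z-score, which can be read as non-binding when negative. The arrays, 3228 of them, came from the Consortium for Functional Glycomics database and were retained only where the protein sequence was available. Z-scores were averaged across arrays of the same protein sequence at different concentrations or buffers and across linkers.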

[2] = target: GalNAc(b1-4)GlcNAc
How it was run: as §1

[3] = target: Glc(a1-4)Glc
How it was run: as §1

[4] = target: Glc(a1-6)Glc(a1-6)Glc
How it was run: as §1

[5] = target: Glc(b1-4)Glc
How it was run: as §1

[6] = target: Glc(b1-6)Glc
How it was run: as §1

[7] = target: GlcA(b1-3)Gal
How it was run: as §1

[8] = target: GlcA(b1-3)GlcNAc
How it was run: as §1

[9] = target: GlcA(b1-6)Gal
How it was run: as §1

[10] = target: GlcNAc(a1-3)Gal(b1-4)GlcNAc
How it was run: as §1

[11] = target: GlcNAc(a1-6)Gal(b1-4)GlcNAc
How it was run: as §1

[12] = target: GlcNAc(b1-2)Gal(b1-3)GalNAc
How it was run: as §1

[13] = target: GlcNAc(b1-2)Man(a1-3)[GlcNAc(b1-2)Man(a1-6)]Man(b1-4)GlcNAc(b1-4)GlcNAc
How it was run: as §1

[14] = target: GlcNAc(b1-3)Gal
How it was run: as §1

[15] = target: GlcNAc(b1-3)Gal(b1-3)GalNAc
How it was run: as §1

[16] = target: GlcNAc(b1-3)Gal(b1-4)Glc
How it was run: as §1

[17] = target: GlcNAc(b1-3)Gal(b1-4)GlcNAc
How it was run: as §1

[18] = target: GlcNAc(b1-3)Gal(b1-4)GlcNAc(b1-3)Gal(b1-4)GlcNAc
How it was run: as §1

[19] = target: GlcNAc(b1-3)GalNAc
How it was run: as §1

[20] = target: GlcNAc(b1-3)Man
How it was run: as §1

[21] = target: GlcNAc(b1-3)[GlcNAc(b1-4)][GlcNAc(b1-6)]GlcNAc
How it was run: as §1

[22] = target: GlcNAc(b1-3)[GlcNAc(b1-6)]Gal(b1-4)GlcNAc
How it was run: as §1

[23] = target: GlcNAc(b1-3)[GlcNAc(b1-6)]GalNAc
How it was run: as §1

[24] = target: GlcNAc(b1-4)Gal(b1-4)GlcNAc
How it was run: as §1

[25] = target: GlcNAc(b1-4)GlcNAc
How it was run: as §1

[26] = target: GlcNAc(b1-4)GlcNAc(b1-4)GlcNAc
How it was run: as §1

[27] = target: GlcNAc(b1-4)GlcNAc(b1-4)GlcNAc(b1-4)GlcNAc(b1-4)GlcNAc
How it was run: as §1

[28] = target: GlcNAc(b1-4)GlcNAc(b1-4)GlcNAc(b1-4)GlcNAc(b1-4)GlcNAc(b1-4)GlcNAc
How it was run: as §1

[29] = target: GlcNAc(b1-4)[GlcNAc(b1-6)]GalNAc
How it was run: as §1

[30] = target: GlcNAc(b1-6)Gal(b1-4)GlcNAc
How it was run: as §1

[31] = target: GlcNAc(b1-6)GalNAc
How it was run: as §1

[32] = target: GlcNAc3Prop(b1-4)GlcNAc
How it was run: as §1

[33] = target: Kdn(a2-3)Gal(b1-3)GlcNAc
How it was run: as §1

[34] = target: Kdn(a2-3)Gal(b1-4)GlcNAc
How it was run: as §1

[35] = target: Man(a1-2)Man(a1-2)Man(a1-3)Man
How it was run: as §1

[36] = target: Man(a1-2)Man(a1-2)Man(a1-6)[Man(a1-3)]Man
How it was run: as §1

[37] = target: Man(a1-2)Man(a1-3)Man
How it was run: as §1

[38] = target: Man(a1-2)Man(a1-3)[Man(a1-2)Man(a1-6)]Man
How it was run: as §1

[39] = target: Man(a1-2)Man(a1-3)[Man(a1-2)Man(a1-6)]Man(a1-6)[Man(a1-2)Man(a1-2)Man(a1-3)]Man
How it was run: as §1

[40] = target: Man(a1-2)Man(a1-3)[Man(a1-2)Man(a1-6)]Man(a1-6)[Man(a1-2)Man(a1-2)Man(a1-3)]Man(b1-4)GlcNAc(b1-4)GlcNAc
How it was run: as §1

[41] = target: Man(a1-2)Man(a1-3)[Man(a1-6)]Man(a1-6)[Man(a1-2)Man(a1-3)]Man(b1-4)GlcNAc(b1-4)GlcNAc
How it was run: as §1

[42] = target: Man(a1-2)Man(a1-6)[Man(a1-3)]Man(a1-6)[Man(a1-2)Man(a1-2)Man(a1-3)]Man
How it was run: as §1

[43] = target: Man(a1-2)Man(a1-6)[Man(a1-3)]Man(a1-6)[Man(a1-2)Man(a1-2)Man(a1-3)]Man(b1-4)GlcNAc(b1-4)GlcNAc
How it was run: as §1

[44] = target: Man(a1-3)[Man(a1-6)]Man
How it was run: as §1

[45] = target: Man(a1-3)[Man(a1-6)]Man(a1-6)[Man(a1-2)Man(a1-3)]Man(b1-4)GlcNAc(b1-4)GlcNAc
How it was run: as §1

[46] = target: Man(a1-3)[Man(a1-6)]Man(a1-6)[Man(a1-3)]Man
How it was run: as §1

[47] = target: Man(a1-3)[Man(a1-6)]Man(a1-6)[Man(a1-3)]Man(b1-4)GlcNAc(b1-4)GlcNAc
How it was run: as §1

[48] = target: Man(a1-3)[Man(a1-6)]Man(b1-4)GlcNAc(b1-4)GlcNAc
How it was run: as §1

[49] = target: Man(a1-6)Man
How it was run: as §1

[50] = target: Man(b1-4)GlcNAc
How it was run: as §1

[51] = target: Neu5Ac(a2-3)Gal
How it was run: as §1

[52] = target: Neu5Ac(a2-3)Gal(b1-3)GalNAc
How it was run: as §1

[53] = target: Neu5Ac(a2-3)Gal(b1-3)GalNAc(b1-3)Gal(a1-4)Gal(b1-4)Glc
How it was run: as §1

[54] = target: Neu5Ac(a2-3)Gal(b1-3)GalNAc(b1-3)Gal(b1-4)GlcNAc
How it was run: as §1

[55] = target: Neu5Ac(a2-3)Gal(b1-3)GalNAc(b1-4)[Neu5Ac(a2-3)]Gal(b1-4)Glc
How it was run: as §1

[56] = target: Neu5Ac(a2-3)Gal(b1-3)GalNAc6S
How it was run: as §1

[57] = target: Neu5Ac(a2-3)Gal(b1-3)GlcNAc
How it was run: as §1

[58] = target: Neu5Ac(a2-3)Gal(b1-3)GlcNAc(b1-3)Gal(b1-3)GlcNAc
How it was run: as §1

[59] = target: Neu5Ac(a2-3)Gal(b1-3)GlcNAc6S
How it was run: as §1

B1: SLLPI (Mus musculus), Q9D9X8 (protein)
chain: MGICMSMYTQVLVPVDADGDHHILWSRFYERWGSCFNPCAGLVNCLPPHSSALYLCHRMEARSRAPRRQLCPPGITWLALAYLLSCLLASSKAKVFSRCELAKEMHDFGLDGYRGYNLADWVCLAYYTSGFNTNAVDHEADGSTNNGIFQISSRRWCRTLASNGPNLCRIYCTDLLNNDLKDSIVCAMKIVQEPLGLGYWEAWRHHCQGRDLSDWVDGCDF
glycan array binding signal (z-score) [1]: 1.03
glycan array binding signal (z-score) [2]: -0.301
glycan array binding signal (z-score) [3]: -0.387
glycan array binding signal (z-score) [4]: -0.821
glycan array binding signal (z-score) [5]: -0.912
glycan array binding signal (z-score) [6]: -0.283
glycan array binding signal (z-score) [7]: 0.451
glycan array binding signal (z-score) [8]: -0.219
glycan array binding signal (z-score) [9]: -1.06
glycan array binding signal (z-score) [10]: 0.414
glycan array binding signal (z-score) [11]: 0.171
glycan array binding signal (z-score) [12]: -1.26
glycan array binding signal (z-score) [13]: -0.631
glycan array binding signal (z-score) [14]: -0.47
glycan array binding signal (z-score) [15]: 3.21
glycan array binding signal (z-score) [16]: -0.699
glycan array binding signal (z-score) [17]: -0.961
glycan array binding signal (z-score) [18]: -0.843
glycan array binding signal (z-score) [19]: -0.086
glycan array binding signal (z-score) [20]: -0.446
glycan array binding signal (z-score) [21]: -0.344
glycan array binding signal (z-score) [22]: -0.606
glycan array binding signal (z-score) [23]: 0.017
glycan array binding signal (z-score) [24]: -0.584
glycan array binding signal (z-score) [25]: -1.01
glycan array binding signal (z-score) [26]: 1.92
glycan array binding signal (z-score) [27]: -0.401
glycan array binding signal (z-score) [28]: -0.311
glycan array binding signal (z-score) [29]: -0.02
glycan array binding signal (z-score) [30]: 0.332
glycan array binding signal (z-score) [31]: 0.716
glycan array binding signal (z-score) [32]: -0.647
glycan array binding signal (z-score) [33]: -0.827
glycan array binding signal (z-score) [34]: -0.806
glycan array binding signal (z-score) [35]: -0.502
glycan array binding signal (z-score) [36]: -0.717
glycan array binding signal (z-score) [37]: 0.391
glycan array binding signal (z-score) [38]: -1.08
glycan array binding signal (z-score) [39]: -0.761
glycan array binding signal (z-score) [40]: -0.652
glycan array binding signal (z-score) [41]: 0.317
glycan array binding signal (z-score) [42]: 0.216
glycan array binding signal (z-score) [43]: -0.136
glycan array binding signal (z-score) [44]: 0.386
glycan array binding signal (z-score) [45]: -1.09
glycan array binding signal (z-score) [46]: -0.684
glycan array binding signal (z-score) [47]: -0.49
glycan array binding signal (z-score) [48]: -0.823
glycan array binding signal (z-score) [49]: -0.797
glycan array binding signal (z-score) [50]: -0.875
glycan array binding signal (z-score) [51]: -0.263
glycan array binding signal (z-score) [52]: -0.56
glycan array binding signal (z-score) [53]: -0.269
glycan array binding signal (z-score) [54]: -0.416
glycan array binding signal (z-score) [55]: -1.2
glycan array binding signal (z-score) [56]: 1.23
glycan array binding signal (z-score) [57]: -1.04
glycan array binding signal (z-score) [58]: -0.839
glycan array binding signal (z-score) [59]: -0.54
